Assay results from paper doi:10.1101/181776.
Results are given in words; binding and its absence hold for the method and conditions named. In cells and extracts the contact can be indirect.

Amino acid sequences for entries named in this document (tags omitted). A change or cut given only in a name is not applied to a line headed by its entry.
UniProt O60573: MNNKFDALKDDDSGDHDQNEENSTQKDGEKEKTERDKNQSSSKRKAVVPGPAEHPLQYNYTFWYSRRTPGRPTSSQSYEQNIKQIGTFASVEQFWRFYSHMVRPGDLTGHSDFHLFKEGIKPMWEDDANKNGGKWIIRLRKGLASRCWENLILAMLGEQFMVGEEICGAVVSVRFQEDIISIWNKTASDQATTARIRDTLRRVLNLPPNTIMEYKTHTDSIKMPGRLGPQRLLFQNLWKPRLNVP
UniProt Q6Y7W6: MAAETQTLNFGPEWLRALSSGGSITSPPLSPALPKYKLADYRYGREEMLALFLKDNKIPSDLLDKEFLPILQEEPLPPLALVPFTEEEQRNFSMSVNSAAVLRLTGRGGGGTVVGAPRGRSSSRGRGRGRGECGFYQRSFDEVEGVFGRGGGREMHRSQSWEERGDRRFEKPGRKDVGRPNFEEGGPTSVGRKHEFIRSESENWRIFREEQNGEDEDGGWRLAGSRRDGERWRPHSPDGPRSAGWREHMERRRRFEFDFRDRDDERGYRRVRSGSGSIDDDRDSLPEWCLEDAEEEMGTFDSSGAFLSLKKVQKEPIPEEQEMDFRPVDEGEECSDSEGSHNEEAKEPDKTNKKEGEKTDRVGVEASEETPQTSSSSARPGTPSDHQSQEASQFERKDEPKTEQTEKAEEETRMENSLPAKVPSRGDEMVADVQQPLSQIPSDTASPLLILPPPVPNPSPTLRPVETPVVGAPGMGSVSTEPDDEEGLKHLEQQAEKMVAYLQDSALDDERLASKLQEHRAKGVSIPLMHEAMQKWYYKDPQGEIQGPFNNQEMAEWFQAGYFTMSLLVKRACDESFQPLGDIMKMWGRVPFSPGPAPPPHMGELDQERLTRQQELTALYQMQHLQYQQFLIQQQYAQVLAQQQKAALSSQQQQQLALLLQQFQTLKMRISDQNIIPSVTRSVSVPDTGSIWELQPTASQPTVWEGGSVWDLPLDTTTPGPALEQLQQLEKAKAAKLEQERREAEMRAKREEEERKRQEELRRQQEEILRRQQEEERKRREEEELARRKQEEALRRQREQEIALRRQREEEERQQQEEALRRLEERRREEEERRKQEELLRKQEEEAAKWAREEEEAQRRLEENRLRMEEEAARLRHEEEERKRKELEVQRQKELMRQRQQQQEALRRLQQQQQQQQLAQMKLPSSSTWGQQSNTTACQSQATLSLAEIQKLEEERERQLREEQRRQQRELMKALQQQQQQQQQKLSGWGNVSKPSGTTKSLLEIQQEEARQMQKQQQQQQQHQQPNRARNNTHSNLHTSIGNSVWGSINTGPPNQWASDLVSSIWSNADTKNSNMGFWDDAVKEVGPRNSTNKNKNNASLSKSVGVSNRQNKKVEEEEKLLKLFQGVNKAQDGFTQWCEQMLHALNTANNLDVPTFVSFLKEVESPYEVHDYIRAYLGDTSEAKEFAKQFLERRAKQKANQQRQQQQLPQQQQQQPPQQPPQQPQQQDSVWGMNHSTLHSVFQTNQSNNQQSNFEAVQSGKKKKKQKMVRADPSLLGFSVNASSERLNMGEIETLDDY

Target: FLAG-tagged m4EHP (human (cDNA from HeLa 11ht RNA)) (UniProt O60573)
Test: co-IP

Substance: HA-tagged mut GIGYF2 (full-length GIGYF2 variant with a disrupted m4EHP-binding site) (from UniProt Q6Y7W6)
- binding: no binding
